The values that follow come from article PMC10127071.

Chains of the proteins cited; added tags and fusions are not shown. Residues count along the entry.
UniProt Q9CXW2: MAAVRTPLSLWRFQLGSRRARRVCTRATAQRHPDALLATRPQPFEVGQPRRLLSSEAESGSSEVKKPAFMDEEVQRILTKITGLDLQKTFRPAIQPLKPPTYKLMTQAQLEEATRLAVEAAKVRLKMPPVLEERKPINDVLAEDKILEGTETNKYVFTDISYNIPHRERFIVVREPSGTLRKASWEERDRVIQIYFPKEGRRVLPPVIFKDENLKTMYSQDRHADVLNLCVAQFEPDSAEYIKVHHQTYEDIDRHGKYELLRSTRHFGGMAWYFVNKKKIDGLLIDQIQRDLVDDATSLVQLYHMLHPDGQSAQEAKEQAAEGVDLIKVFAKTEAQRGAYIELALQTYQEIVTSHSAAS
UniProt Q9ER88, residues 18-391: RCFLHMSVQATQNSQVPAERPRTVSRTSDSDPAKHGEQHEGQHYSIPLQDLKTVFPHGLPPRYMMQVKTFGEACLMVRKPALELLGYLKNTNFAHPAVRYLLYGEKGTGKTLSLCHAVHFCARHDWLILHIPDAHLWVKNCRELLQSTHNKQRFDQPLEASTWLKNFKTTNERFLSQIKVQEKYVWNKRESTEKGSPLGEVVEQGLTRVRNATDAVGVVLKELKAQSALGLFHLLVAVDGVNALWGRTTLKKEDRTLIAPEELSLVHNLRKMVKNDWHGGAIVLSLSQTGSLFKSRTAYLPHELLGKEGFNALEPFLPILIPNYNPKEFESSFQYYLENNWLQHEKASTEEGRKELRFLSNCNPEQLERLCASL

These are yes or no findings as the source states them, for the method shown. Binding seen in cells or lysates may run through a third protein. Some entries that bind do so weakly or less than the wild type.

The assay concerns the target T1, Complement component 1, q subcomponent binding protein (mouse (endogenous in GC-1 spg)) (UniProt O35658).
T1 sequence: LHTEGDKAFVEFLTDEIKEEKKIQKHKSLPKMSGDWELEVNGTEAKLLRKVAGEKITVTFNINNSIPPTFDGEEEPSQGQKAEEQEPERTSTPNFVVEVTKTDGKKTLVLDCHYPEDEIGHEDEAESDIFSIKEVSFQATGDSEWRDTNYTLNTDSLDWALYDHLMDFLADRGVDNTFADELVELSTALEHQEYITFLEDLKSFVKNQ
Kind of assay: co-IP; co-immunoprecipitation of C1qbp followed by Western blotting, in wild-type and Rsrc1+/+/circRsrc1-/- GC-1 spg cells. (In general: Immunoblotting shows a protein as a band on a membrane.)

Regarding “Mitochondrial ribosomal protein L3 (from UniProt Q99N95 41-348)”, the binding entry was “binds”.
Turning to “Mitochondrial ribosomal protein S22 (from UniProt Q9CXW2 1-359)”, the binding entry is recorded as “binds”.
Take “Mitochondrial ribosomal protein S29 (from UniProt Q9ER88 18-391)”: the binding result is given as “binds”.
